Data reported in PMC8321694.
Residue numbers refer to the chain shown, from its start. Results are given in words; binding and its absence hold for the method and conditions named. Binding can be weak; no strength is given.

Tests used:
[1] = target: T1, LexA-Pol31 (wild-type, full length) (budding yeast) (UniProt P46957); assay: two-hybrid; LexA bait (pGAL-LexA) and B42 prey (pJG4-7), lacZ reporter pSH18-34; 2% galactose for 6 h; quantitative liquid β-galactosidase assay of cell extracts; pol32Δ strain GA-6292 (no endogenous Pol32)
T1 sequence: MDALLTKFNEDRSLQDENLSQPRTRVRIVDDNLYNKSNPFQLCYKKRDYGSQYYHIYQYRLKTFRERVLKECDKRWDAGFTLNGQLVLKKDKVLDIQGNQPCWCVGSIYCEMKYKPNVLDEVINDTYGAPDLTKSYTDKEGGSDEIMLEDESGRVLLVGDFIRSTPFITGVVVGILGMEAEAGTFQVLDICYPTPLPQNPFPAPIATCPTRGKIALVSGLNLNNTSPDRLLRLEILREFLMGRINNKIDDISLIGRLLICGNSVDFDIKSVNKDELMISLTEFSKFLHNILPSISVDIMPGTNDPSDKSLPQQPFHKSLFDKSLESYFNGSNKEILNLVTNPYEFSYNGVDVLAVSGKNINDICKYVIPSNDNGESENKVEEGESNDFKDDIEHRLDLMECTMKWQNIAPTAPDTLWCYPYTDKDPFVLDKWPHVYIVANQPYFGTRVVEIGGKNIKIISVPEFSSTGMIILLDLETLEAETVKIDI

[2] = target: T2, LexA-Pol31-W417A (budding yeast) (UniProt P46957); assay: as above
T2 sequence: T1 sequence with W417A

[3] = target: T1, LexA-Pol31 (wild-type, full length) (budding yeast); assay: two-hybrid; LexA bait (pGAL-LexA) and B42 prey (pJG4-7), lacZ reporter pSH18-34; 2% galactose for 6 h; quantitative liquid β-galactosidase assay of cell extracts; wild-type strain GA-1981 (endogenous Pol32 present)
[4] = target: T2, LexA-Pol31-W417A (budding yeast); assay: as above

Measured: binding

Rev3 CTD, two-hybrid fusion (budding yeast) (domain or fragment)
binds: all assays above
